Assay results reported in patent publication US20140030270A1.
No constants are given. Whether binding was seen depends on the method and setting. Binding can be weak; no strength is given.

Columns and labels:
[1] = target: cynomolgus monkey PCSK9, V5-6xHIS tagged (cynomolgus monkey); assay: Biacore solution equilibrium: 0.1/0.3/1/3 nM cPCSK9 + (1 pM ~ 25 nM) 21B12, free cPCSK9 measured on an immobilised 21B12 surface (the sheet names cPCSK9; the text calls FIG. 5C mPCSK9)
[2] = target: cynomolgus monkey PCSK9, V5-6xHIS tagged (cynomolgus monkey); assay: BIAcore solution equilibrium; free PCSK9 measured on immobilized 21B12 surface

binding [1]: binds
binding [2]: binds
B1: 21B12 IgG4 (21B12, anti-PCSK9 huIgG4) (antibody, V domains shown)
VH: QVQLVQSGAEVKKPGASVKVSCKASGYTLTSYGISWVRQAPGQGLEWMGWVSFYNGNTNYAQKLQGRGTMTTDPSTSTAYMELRSLRSDDTAVYYCARGYGMDVWGQGTTVTVSS
VL: QSALTQPASVSGSPGQSITISCTGTSSDVGGYNSVSWYQQHPGKAPKLMIYEVSNRPSGVSNRFSGSKSGNTASLTISGLQAEDEADYYCNSYTSTSMVFGGGTKLTVLQ
